Source: PubChem BioAssay AID504467 (National Center for Advancing Translational Sciences (NCATS), 2011)
Among all 330,000 compounds or so, about 7,700 (2.3%) were called active. Inconclusive results, whose numbers are uncertain, are shown with a selection of clear calls. Calls come from the whole dose curve; as a rule, active = well fitted inhibition curve with a large enough effect; inconclusive = small, poorly fitted or top-dose-only effect, or effect the other way; inactive = flat fitted curve, though single readings scatter. A potency beside an inconclusive call is a rough fit, not a confirmed value.
Potency is the fitted concentration of half-maximal effect.

Experiment: qHTS screen for small molecules that inhibit ELG1-dependent DNA repair in human embryonic kidney (HEK293T) cells expressing luciferase-tagged ELG1; note: nearly all actives have a fitted effect of over 55% in size
Settings: HEK293T ELG1-luciferase reporter, luminescence, 16 h, DNA damage induced by 5-fluorouridine; series mostly up to 46.1 µM
Summary of the method: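 Reporter activity after DNA damage by 5-fluorouridine is monitored. Compound-treated cells incubate 16 hr at 37 °C, then ONE-Glo is added for 30 min before luminescence reading.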
In the case of CCOc1ccc(NC(=O)Cc2ccc(NC3=NC4CS(=O)(=O)CC4S3)cc2)cc1 (centres undefined), the Potency is reported as inconclusive: 0.0146 µM [activator, full curve, poor fit].
With CCCCn1cnc2c(=S)nc(N)[nH]c21 the Potency was “inactive”.
With O=C(NCC1CCCO1)c1cn(Cc2ccccc2)nc1-c1ccc(Cl)cc1 (centres undefined) the Potency was inconclusive: 17.8 µM [inhibitor, partial curve, poor fit].
For CC(C)c1ccc(NC(=O)Nc2cnccn2)cc1, the Potency was inconclusive: 16.4 µM [activator, partial curve].
For CC(=O)c1nnn(-c2c(F)cccc2F)c1C, the Potency was inconclusive: 20.6 µM [activator, single point].
In the case of CC(C)CC(C)N1CCC(n2nccc2NC(=O)CCc2ccccc2)CC1 (centres undefined), the Potency is reported as inconclusive: 32.6 µM [activator, partial curve, poor fit].
In the case of COc1ccccc1CN(Cc1cc2cc(C)ccc2[nH]c1=O)Cc1nnnn1Cc1ccco1, the Potency is reported as inconclusive: 22.4 µM [inhibitor, single point].
For COCCC(=O)N1CCCC(C(=O)c2ccc3c4c(cccc24)CC3)C1 (centres undefined), the Potency was inconclusive: 29.1 µM [inhibitor, single point].
With Cc1ccc(C(=O)NC(=S)Nc2cccnc2Cl)cc1 the Potency was inconclusive: 2.91 µM [activator, partial curve, poor fit].
With O=C1C=C(Nc2ccc(O)cc2)C(=O)c2ccccc21 the Potency was inconclusive: 6.51 µM [activator, single point].
In the case of O=C(CCCOc1ccccc1)OCn1nnc2ccccc2c1=O, the Potency is reported as inconclusive: 25.9 µM [activator, partial curve, poor fit].
With COc1ccc(NC(C)C(=O)Nc2ccc(C#N)cc2)cc1Cl (centres undefined) the Potency was inconclusive: 25.9 µM [inhibitor, partial curve, poor fit].
With Clc1ccc(-c2cc(CN3CCCCC3)no2)cc1Cl the Potency was inconclusive: 20.6 µM [activator, single point].
With COc1ccc(CCNC(=O)c2nn(C)cc2Cl)cc1 the Potency was inconclusive: 18.4 µM [activator, partial curve].
With Nc1nn2c(-c3ccccc3)cc(=O)[nH]c2c1N=Nc1ccc(Br)cc1 the Potency was “inactive”.
For COc1ccc(OC)c2sc(N(CCCN(C)C)C(=O)CCS(=O)(=O)c3ccccc3)nc12, the Potency was inconclusive: 0.92 µM [inhibitor, partial curve, poor fit].
In the case of O=C(CSc1nnc(-c2ccc(Cl)cc2)o1)N1CCOCC1, the Potency is reported as inconclusive: 13 µM [activator, partial curve].
In the case of CC(C)(CNC(=O)/C=C/c1ccc(F)cc1)CNC(=O)/C=C/c1ccc(F)cc1, the Potency is reported as active: 23.1 µM.
In the case of COC(=O)c1cn(NC(=O)c2cc(OC)c(OC)c(OC)c2)c(=O)c2ccccc12, the Potency is reported as inconclusive: 23.1 µM [inhibitor, partial curve].
For COC(=O)c1cc(NS(=O)(=O)c2ccc3c(c2)c(=O)n(C)c(=O)n3C)cc(C(=O)OC)c1, the Potency was inconclusive: 29.1 µM [activator, partial curve, poor fit].
In the case of O=c1c2ccccc2nc(N2CCN(c3ccccc3)CC2)n1Cc1ccccc1, the Potency is reported as inconclusive: 18.4 µM [inhibitor, single point].
For Cc1nn(-c2ccccc2)c2nc(=O)n(-c3ccccc3)cc12, the Potency was “inactive”.
For Cn1c(O)c(C=Nc2ccc(Cc3ccncc3)cc2)c(=O)n(C)c1=O, the Potency was inconclusive: 4.11 µM [inhibitor, single point].
In the case of O=C(NCCN1CCCCC1)c1cccc2c1C(=O)c1ccc(N3CCCC3)cc1S2(=O)=O, the Potency is reported as inconclusive: 6.51 µM [activator, partial curve, poor fit].
With CC1(C)CCCN(C(=O)c2ccc3c(c2NCCO)C(=O)c2ccccc2C3=O)C1 the Potency was inconclusive: 18.4 µM [inhibitor, single point].
In the case of COc1cc(SC)ccc1C(=O)Nc1ccc2c(c1)OCCO2, the Potency is reported as inconclusive: 2.06 µM [activator, partial curve].
With CCN(CC)S(=O)(=O)c1ccc(NC2CCCc3ccccc32)nc1 (centres undefined) the Potency was inconclusive: 29.1 µM [inhibitor, single point].
With COc1cccc(-n2nnnc2SCC(=O)Nc2cccc(NC(C)=O)c2)c1 the Potency was inconclusive: 18.4 µM [inhibitor, single point].
For c1ccc(-n2ncc3c(NCc4ccccn4)ncnc32)cc1, the Potency was inconclusive: 14.1 µM [activator, partial curve, poor fit].
With Cc1ccc2cc(CN(C(=O)c3ccco3)c3ccccc3)c(=O)[nH]c2c1 the Potency was inconclusive: 29.1 µM [activator, single point].
With COc1ccc(N(CC(=O)Nc2ccc(C)c(C)c2)S(=O)(=O)c2c(C)noc2C)cc1 the Potency was inconclusive: 16.4 µM [inhibitor, single point].
With CCc1ccc(S(=O)(=O)Nc2ccc(O)c3c(=O)cc(-c4ccccc4Cl)oc23)cc1 the Potency was “inactive”.
In the case of Cc1csc(NC(=O)c2nc3nc(C)cc(C)n3n2)n1, the Potency is reported as inconclusive: 6.51 µM [activator, partial curve].
In the case of Cn1c(-c2ccc(C(F)(F)F)cc2)cc2onc(-c3ccccc3)c2c1=O, the Potency is reported as inconclusive: 0.891 µM [activator, partial curve].
With O=C(COc1ccc2ccccc2c1Br)Nc1ncn[nH]1 the Potency was inconclusive: 11.2 µM [activator, partial curve].
In the case of COc1ccc(S(=O)(=O)c2nnn(-c3cccc(OC)c3)c2N)cc1, the Potency is reported as inconclusive: 20.6 µM [inhibitor, partial curve, poor fit].
For COc1cccc(NC(=O)COc2nc3ccccc3nc2C)c1, the Potency was “inactive”.
In the case of Cc1ccc(-c2cc[n+](Cc3ccccc3)cc2)cc1, the Potency is reported as inconclusive: 8.2 µM [inhibitor, partial curve].
For Cc1noc(C)c1COc1ccccc1C(=O)N1CCN(S(=O)(=O)c2ccccc2C(F)(F)F)CC1, the Potency was “inactive”.
In the case of Cc1cc(NC(=O)CSc2nnc(C)n2-c2ccccc2)no1, the Potency is reported as “inactive”.
For COc1ccccc1NC(=O)Nc1ccc2c(c1)nc(C)n2C, the Potency was inconclusive: 2.59 µM [activator, partial curve].
With CCCCNS(=O)(=O)c1ccc2nc(SCC(=O)c3ccccc3OC)[nH]c2c1 the Potency was active: 20.6 µM.
With Cc1ccc2[nH]c3c(Cl)ncnc3c2c1 the Potency was inconclusive: 3.66 µM [inhibitor, single point].
With O=c1c2c(nc3cc(-c4ccccc4Cl)[nH]n13)CCS2 the Potency was inconclusive: 10.3 µM [activator, partial curve].
For COC(=O)c1cn(Cc2ccccc2C)nn1, the Potency was “inactive”.
In the case of COc1cccc(OC)c1C(=O)Nc1ccc(N2CCN(C(=O)c3cccs3)CC2)cc1, the Potency is reported as “inactive”.
For Cc1ccsc1C(=O)NNC(=O)COc1ccc(Br)cc1, the Potency was inconclusive: 29.1 µM [activator, single point].
For COc1ccccc1C(=O)Nc1ccc2c(c1)CCCN2C(=O)c1ccccc1, the Potency was inconclusive: 29.1 µM [inhibitor, single point].
For O=C(NCCCN1CCc2ccccc2C1)C1CCN(c2nnc(-n3cccc3)s2)CC1, the Potency was inconclusive: 20.6 µM [inhibitor, single point].
With Cc1nonc1C(=O)N/N=C/c1ccc([N+](=O)[O-])o1 the Potency was “inactive”.
For CC1Cc2ccccc2N1CC(=O)Nc1ccc2c(c1)OC(F)(F)O2 (centres undefined), the Potency was inconclusive: 20.6 µM [inhibitor, single point].
In the case of N/C(=N\OC(=O)CCc1ccccc1)c1ccccc1Cl, the Potency is reported as inconclusive: 29.1 µM [activator, single point].
In the case of N#Cc1c(-c2ccccc2)cc(C2CC2)nc1N, the Potency is reported as “inactive”.
For Cc1c(-c2nc(-c3cccnc3)no2)cccc1[N+](=O)[O-], the Potency was inconclusive: 18.3 µM [activator, partial curve].
With NC(=O)[C@@H]1CC2(CC(c3cccc(NC(=O)CC(c4ccccc4)c4ccccc4)c3)=NO2)CN1C(=O)c1ccc(Cl)cc1 (some centres undefined) the Potency was inconclusive: 20.6 µM [inhibitor, single point].
In the case of CCCOc1ccccc1NC(=O)c1c(-c2ccccc2)noc1C, the Potency is reported as “inactive”.
With Cc1ccc(S(=O)(=O)NC(CC(C)C)C(=O)NCC(C)(C)N2CCOCC2)cc1 (centres undefined) the Potency was “inactive”.
In the case of O=C(NCCCNC(=O)c1ccc(F)cc1)c1ccc(F)cc1, the Potency is reported as “inactive”.
In the case of Cc1cccc(C(C)C)c1NC(=O)CN(C)Cc1cccc(F)c1, the Potency is reported as “inactive”.
In the case of c1ccc(COc2ccc(OCCN3CCCC3)cc2)cc1, the Potency is reported as inconclusive: 16.4 µM [activator, partial curve].
For Cc1oc2c(F)c(F)c(F)c(F)c2c1S(=O)(=O)Nc1cccc(C(F)(F)F)c1, the Potency was inconclusive: 5.17 µM [inhibitor, partial curve, poor fit].
For O=C(Nc1cccnc1)C1OCCc2ccccc21 (centres undefined), the Potency was “inactive”.
With Oc1ccc(/C=N/N2CCN(C3c4ccccc4-c4ccccc43)CC2)cc1 the Potency was “inactive”.
With O=C(COc1ccc(S(=O)(=O)N2CCOCC2)cc1)Nc1ccc2c(c1)OCCO2 the Potency was inconclusive: 23.1 µM [inhibitor, single point].
For O=C(N/N=C/c1c[nH]c2ccc(Br)cc12)c1ccc2c(c1)OCO2, the Potency was “inactive”.
In the case of COc1cc(/C=C2\SC(=O)NC2=O)ccc1Oc1cnccn1, the Potency is reported as “inactive”.
In the case of Cc1ccc(NC(=S)c2nc3ccccc3[nH]2)cc1, the Potency is reported as inconclusive: 2.31 µM [activator, full curve].
With CC(/C=C/c1ccco1)=N/NC(=O)c1ccccc1Cl the Potency was inconclusive: 16.4 µM [activator, partial curve, poor fit].
With CNS(=O)(=O)c1ccc2ccccc2c1 the Potency was inconclusive: 6.51 µM [inhibitor, single point].
